From the supplement of paper PMC7024190 come the findings set out here.

Counter-ions that a name gives are not always drawn. This is one part of the list. This data set is noisy: repeats of one test often differ as much as different tests do.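 The cells were human embryonic kidney cells carrying a Renilla luciferase gene, driven by the HSV-TK promoter, on a plasmid put in briefly by transfection. This is the first-round screen of about ten thousand compounds, looking for ones that raise reporter output.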

This assay concerns HEK 293FT. As to the kind of experiment: log relative Renilla luciferase luminescence (reporter expression vs reference, reference not stated) (log (base not stated)); higher = higher recombinant reporter expression. As to conditions: 10 µM; time after transfection 48 h.
Turning to `CC(C)c1ccc2c(c1)CC[C@H]1[C@](C)(CN)CCC[C@]21C` [Lylamine hydrochloride], the log was 0.0525.
As for `COc1cc(OC)c(C(=O)CCCCN2CCC3(CC2)NC(=O)NC3=O)cc1NS(=O)(=O)c1ccc(C(F)(F)F)cc1`, the figure is -0.0109.
With `O=C1Cc2c([nH]c3ccc(Br)cc23)-c2ccccc2N1` [Kenpaullone] the figure was 0.0774; with `OC(CCCN1CCN(c2ncc(F)cn2)CC1)c1ccc(F)cc1` (stereo not given), 0.0079; with `NCC(O)(CS(=O)(=O)O)c1ccc(Cl)cc1` (stereo not given) [2-Hydroxysaclofen], -0.732.
As for `O=S(=O)(c1ccccc1)N(CC(F)(F)F)c1ccc(C(O)(C(F)(F)F)C(F)(F)F)cc1`, the figure is 0.0269; as for `Cc1ccc(O)c(N=Nc2ccccc2)n1`, -0.085; as for `OCC1OC(n2cnc3c(NC4CCCC4)nc(Cl)nc32)C(O)C1O` (stereo not given) [2-Chloro-N6-cyclopentyladenosine], 0.0512.
For `CS(=O)(=O)Nc1c(O)ccc2c1CCCC2C1=NCCN1` (stereo not given), the log is -0.0572.
With `CSc1nc(NC2CCCC2)c([N+](=O)[O-])c(NC2CCCC2)n1` the figure was -0.0175.
As for `Brc1c(NC2=NCCN2)ccc2nccnc12` [UK 14,304 tartrate], the figure is -0.0171; as for `CN[C@H]1CC[C@@H](c2ccc(Cl)c(Cl)c2)c2ccccc21` [Sertraline hydrochloride], -0.111; as for `Cc1cccc(C)c1NC(=O)C[N+](C)(C)C`, -0.141.
As for `Nc1[nH]nc2nc3ccccc3nc12`, the figure is 0.132.
Consider `Cc1c(NC(=O)N2CCOCC2)ccc2c1c1ccccc1n2C(C)C`, for which the log is -0.00216.
As for `O=C(O)CCCc1ccccc1` [sodium 4-Phenylbutyrate], the figure is 0.007; as for `Cc1noc(NS(=O)(=O)c2ccc(N)cc2)c1C` [Sulfisoxazole], 0.0209.
For the compound `COc1cccc(CCc2ccccc2OCC[C@@H]2C[C@@H](O)CN2C)c1`, the log came out at 0.0895.
Regarding `CC1=C(/C=C/C(C)=C/C=C/C(C)=C/C(=O)Nc2ccc(O)cc2)C(C)(C)CCC1` [Fenretinide], the log was 0.034.
Turning to `Cn1cc(C2=C(c3cn(CCCSC(=N)N)c4ccccc34)C(=O)NC2=O)c2ccccc21` [Ro 31-8220 mesylate], the log amounted to 0.00213.
As to `O=c1nc2ccccc2c2n1CC(CN1CCN(c3ccccc3)CC1)N2` (stereo not given), the log amounted to 0.0792.
With `Cc1ccc2c(c1)c1c3n2CCNC3CCC1` (stereo not given) [Pirlindole mesylate] the figure was 0.105; with `O=c1[nH]c2cc(C(F)(F)F)c(N3CCOCC3)cc2n(CP(=O)(O)O)c1=O`, -0.158; with `NC(=O)CCCCn1ccc(NC(N)=NCC(F)(F)F)n1`, 0.0419.
As for `COc1cc2c(cc1C(F)(F)F)N(C(=O)Nc1cc(F)cc(-c3cccnc3)c1)CC2`, the figure is 0.0525.
For the compound `O=C(O)C1=CCCN(CCON=C(c2ccccc2)c2ccccc2)C1`, the log came out at 0.177.
With `C[C@H](NC[C@H](O)CP(=O)(O)CC1CCCCC1)c1ccc(Cl)c(Cl)c1` the figure was 0.128; with `O=S1(=O)c2cccc3cccc(c23)N1CCCN1CCN(c2ccc(F)cc2)CC1` [Fananserin], -0.04.
Take `COc1ccccc1C1(O)CCN(CCCn2c3ccccc3c3ccccc32)CC1` [NNC 05-2090 hydrochloride]: the log was -0.012.
Consider `CCOC(=O)[C@]12CC1/C(=N\O)c1ccccc1O2` (stereo not given in full), for which the log is -0.138.
With `NC(=O)c1ccc2[nH]ccc2c1` the figure was 0.0606.
With `COC(=O)C1=C(C)NC(C)=C(C(=O)OCCCN2CCC(c3ccccc3)(c3ccccc3)CC2)[C@H]1c1cccc([N+](=O)[O-])c1` [(S)-(+)-Niguldipine hydrochloride] the figure was 0.06.
With `Oc1nc(-c2ccc(C(F)(F)F)cc2)nc2c1CSCC2` the figure was -0.107.
As for `CCCn1c(=O)c2[nH]c(-c3ccccc3)nc2n(CCC)c1=O` [1,3-Dipropyl-8-phenylxanthine], the log turned out to be 0.209.
As for `COc1cc(NC(=O)c2ccccn2)ccc1Cl`, the figure is -0.13; as for `NCCCCCCCCCCNS(=O)(=O)c1cccc2c(Cl)cccc12` [A-7 hydrochloride], 0.157.
As for `CC[C@H](CO)Nc1nc(Nc2cccc(-c3ccccn3)c2)c2ncn(C(C)C)c2n1` [(R)-DRF053 dihydrochloride], the figure is -0.138; as for `CC(C)NCC(O)COc1cccc2ccccc12` (stereo not given) [Propranolol hydrochloride], 0.0219.
As for `O=C(NCCCCCCNC(=O)ON=C1CCCCC1)ON=C1CCCCC1`, the figure is 0.0512.
`O=C1C(=O)N(Cc2ccc(Cl)c(Cl)c2)c2ccccc21` [Apoptosis Activator 2]: the log was -0.012.
